Measured values as given in article PMC10935964.
These are yes or no findings as the source states them, for the method shown. Binding seen in cells or lysates may run through a third protein. Some binding calls cover weakened binding; strength is not graded here.

Amino acid sequences for entries named in this document (tags omitted).
UniProt Q69022: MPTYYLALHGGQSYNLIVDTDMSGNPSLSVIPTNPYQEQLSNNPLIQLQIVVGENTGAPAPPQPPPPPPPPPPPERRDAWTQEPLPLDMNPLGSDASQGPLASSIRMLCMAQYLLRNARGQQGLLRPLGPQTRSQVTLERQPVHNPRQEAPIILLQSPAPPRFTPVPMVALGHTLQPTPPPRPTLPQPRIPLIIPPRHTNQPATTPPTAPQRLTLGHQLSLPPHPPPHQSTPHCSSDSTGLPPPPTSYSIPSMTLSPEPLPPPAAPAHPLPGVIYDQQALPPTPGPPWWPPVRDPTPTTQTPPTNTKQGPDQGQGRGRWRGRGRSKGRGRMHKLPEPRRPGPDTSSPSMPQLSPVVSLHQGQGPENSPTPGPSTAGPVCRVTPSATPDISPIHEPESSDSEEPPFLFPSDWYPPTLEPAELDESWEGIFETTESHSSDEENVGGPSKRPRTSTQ
UniProt Q06330: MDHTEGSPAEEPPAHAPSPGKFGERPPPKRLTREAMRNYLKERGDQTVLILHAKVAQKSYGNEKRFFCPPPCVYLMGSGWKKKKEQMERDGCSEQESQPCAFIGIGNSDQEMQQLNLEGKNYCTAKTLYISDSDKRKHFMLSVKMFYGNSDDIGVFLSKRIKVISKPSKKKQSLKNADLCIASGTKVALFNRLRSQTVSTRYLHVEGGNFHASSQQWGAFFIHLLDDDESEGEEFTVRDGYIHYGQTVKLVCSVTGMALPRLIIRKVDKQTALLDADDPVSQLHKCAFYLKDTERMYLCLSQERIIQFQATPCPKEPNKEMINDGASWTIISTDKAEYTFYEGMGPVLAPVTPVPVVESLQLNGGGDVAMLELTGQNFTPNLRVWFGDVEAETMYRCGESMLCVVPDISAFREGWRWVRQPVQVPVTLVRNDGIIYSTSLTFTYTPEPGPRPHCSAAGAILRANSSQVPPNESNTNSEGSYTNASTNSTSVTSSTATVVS

Biological target: Epstein-Barr Nuclear Antigen 2 type 2 (EBV-2, AG876 virus, in AG876 cells) (Epstein-Barr virus type 2, strain AG876 (endogenous in infected AG876 cells)) (UniProt Q69022)
Test: co-IP; nuclear lysates (500 ug) of Akata (EBV negative), GM12878 (EBV-1) and AG876 (EBV-2); IP with anti-EBNA2 antibody PE2 and Protein A/G beads in Co-IP buffer (1% NP-40, 150 mM NaCl, 10 mM Tris-HCl pH 7.4, 1 mM EDTA, 3% glycerol), 4 C; blots for RBPJ, EBF1, SPI1

For “recombination signal binding protein for immunoglobulin kappa J region (RBPJ) (from UniProt Q06330 1-500)”, which binding is on record?
The binding was “binds”.
